Reference: paper PMC6317315

Sequences of proteins named here, by UniProt entry; tags and fusion partners are left off. A change or cut given only in a name is not applied to a line headed by its entry.
UniProt Q23096: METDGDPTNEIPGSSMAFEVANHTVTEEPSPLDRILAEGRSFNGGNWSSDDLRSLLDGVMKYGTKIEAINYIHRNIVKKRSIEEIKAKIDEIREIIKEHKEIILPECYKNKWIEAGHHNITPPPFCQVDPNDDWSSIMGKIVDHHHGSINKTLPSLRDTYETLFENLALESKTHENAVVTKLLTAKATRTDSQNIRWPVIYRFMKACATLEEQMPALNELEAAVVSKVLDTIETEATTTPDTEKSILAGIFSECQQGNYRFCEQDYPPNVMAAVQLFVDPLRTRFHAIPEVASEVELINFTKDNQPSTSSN

How the values were obtained:
[1] = target: T1, piRNA silencing-defective 1 (PRDE-1) (C. elegans (endogenous in N2 animals)) (UniProt O17828); test: SEC; 5 mL worm nuclear extract on Superose6 xK 16/70, 1-mL fractions, TCA precipitation, Western blot for PRDE-1 and TOFU-5
T1 sequence: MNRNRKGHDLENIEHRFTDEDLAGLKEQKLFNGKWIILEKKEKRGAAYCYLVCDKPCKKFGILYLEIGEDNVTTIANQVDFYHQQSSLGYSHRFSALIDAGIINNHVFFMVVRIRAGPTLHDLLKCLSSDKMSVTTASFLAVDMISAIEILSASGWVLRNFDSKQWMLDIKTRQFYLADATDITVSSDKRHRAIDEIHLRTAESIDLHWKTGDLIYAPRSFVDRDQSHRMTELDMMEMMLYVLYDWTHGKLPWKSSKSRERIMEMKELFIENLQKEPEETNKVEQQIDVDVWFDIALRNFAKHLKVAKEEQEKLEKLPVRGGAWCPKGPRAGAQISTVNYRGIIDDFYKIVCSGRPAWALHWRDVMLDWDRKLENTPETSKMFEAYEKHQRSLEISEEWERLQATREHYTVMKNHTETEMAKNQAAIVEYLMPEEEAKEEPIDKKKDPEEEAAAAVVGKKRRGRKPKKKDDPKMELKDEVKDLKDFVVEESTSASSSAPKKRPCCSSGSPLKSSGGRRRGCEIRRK

[2] = target: T2, full-length C. elegans PRDE-1 protein (amino acids 1–526), yeast two-hybrid fusion (C. elegans) (UniProt O17828); test: two-hybrid; LexA-DBD baits in pB27 screened by mating against a random-primed C. elegans mixed-stage cDNA library in pP6; selection without Trp, Leu, His (0.5 mM 3-aminotriazole for LexA-Prde-1); Hybrigenics Services
T2 sequence: T1 sequence

[3] = target: T3, full-length C. elegans SNPC-4 protein (amino acids 1–928), yeast two-hybrid fusion (C. elegans) (UniProt P91868); test: as above
T3 sequence: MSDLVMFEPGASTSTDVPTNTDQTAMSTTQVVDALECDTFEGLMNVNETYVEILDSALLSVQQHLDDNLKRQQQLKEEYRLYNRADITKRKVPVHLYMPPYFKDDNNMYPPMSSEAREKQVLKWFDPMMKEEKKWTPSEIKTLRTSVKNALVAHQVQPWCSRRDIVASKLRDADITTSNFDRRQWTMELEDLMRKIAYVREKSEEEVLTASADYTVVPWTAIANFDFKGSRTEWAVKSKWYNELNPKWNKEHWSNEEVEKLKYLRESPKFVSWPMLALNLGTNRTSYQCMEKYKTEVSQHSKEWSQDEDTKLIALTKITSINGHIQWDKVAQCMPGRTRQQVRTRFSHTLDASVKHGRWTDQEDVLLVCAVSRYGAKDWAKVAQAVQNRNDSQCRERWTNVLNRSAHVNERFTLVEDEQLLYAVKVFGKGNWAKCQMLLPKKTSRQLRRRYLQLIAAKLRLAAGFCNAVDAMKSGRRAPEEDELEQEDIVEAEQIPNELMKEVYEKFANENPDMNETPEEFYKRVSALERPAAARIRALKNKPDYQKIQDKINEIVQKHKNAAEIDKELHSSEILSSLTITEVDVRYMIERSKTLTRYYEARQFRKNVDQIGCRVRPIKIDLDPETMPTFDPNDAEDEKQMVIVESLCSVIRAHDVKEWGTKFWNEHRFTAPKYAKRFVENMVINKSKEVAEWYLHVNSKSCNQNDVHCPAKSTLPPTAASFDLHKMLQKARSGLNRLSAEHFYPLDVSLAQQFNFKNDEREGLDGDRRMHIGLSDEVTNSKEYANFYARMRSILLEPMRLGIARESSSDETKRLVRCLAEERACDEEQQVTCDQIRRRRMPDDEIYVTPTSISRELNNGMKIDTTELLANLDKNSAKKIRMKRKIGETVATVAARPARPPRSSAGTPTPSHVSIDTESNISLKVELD

[4] = target: full-length C. elegans TOFU-5 protein (amino acids 1–311), yeast two-hybrid fusion (C. elegans) (UniProt Q23096); test: as above

“twenty-one-U fouled-up 5 (TOFU-5) (from UniProt Q23096)” was tested, and the binding [1] was “binds”.

“C. elegans TOFU-4 protein fragment (amino acids 1–223), yeast two-hybrid fusion (domain or fragment)” was tested, and the binding [2] was “binds”.

With “full-length C. elegans TOFU-5 protein (amino acids 1–311), yeast two-hybrid fusion (from UniProt Q23096)” the binding [3] was “binds”.

B1: full-length C. elegans SNPC-4 protein (amino acids 1–928), yeast two-hybrid fusion (protein, UniProt P91868-2 1-928)
chain: T3 sequence
B1 was tested, and the binding [4] was “binds”.

These are yes or no findings as the source states them, for the method shown. A result given as binding can be weak or reduced; the word gives no strength. For some of these results: Where a sequence is shown, tags or fusion partners need not be part of it.
